Some results were stated once for a whole list of compounds, not compound by compound.
Tested on: NCI-60 human cancer cell line panel
Assay: NCI-60 initial one dose test
Assay type: cell-based
Conditions: 10 μM
Description: Biological evaluation. The synthesized epothilone analogues were submitted to the NCI for testing against the NCI-60 human cancer cell line panel (Shoemaker, 2006).

Row | Structure (SMILES) | activity in initial one dose test
1 | C/C(=C\c1ccn(-c2ccc(N)cc2)n1)[C@@H]1C[C@@H]2O[C@]2(C)CCC[C@H](C)[C@H](O)[C@@H](C)C(=O)C(C)(C)[C@@H](O)CC(=O)O1 [Compound 8] | passed the initial one dose test
2 | C/C(=C\c1ccn(-c2ccc(N)cc2F)n1)[C@@H]1C[C@@H]2O[C@]2(C)CCC[C@H](C)[C@H](O)[C@@H](C)C(=O)C(C)(C)[C@@H](O)CC(=O)O1 [Compound 14] | passed the initial one dose test
3 | C/C(=C\c1ccn(-c2ccccc2N)n1)[C@@H]1C[C@@H]2O[C@]2(C)CCC[C@H](C)[C@H](O)[C@@H](C)C(=O)C(C)(C)[C@@H](O)CC(=O)O1 [Compound 10] | passed the initial one dose test
4 | C/C(=C\c1ccn(-c2ccc(N)c(C(F)(F)F)c2)n1)[C@@H]1C[C@@H]2O[C@]2(C)CCC[C@H](C)[C@H](O)[C@@H](C)C(=O)C(C)(C)[C@@H](O)CC(=O)O1 [Compound 11] | passed the initial one dose test
5 | C/C(=C\c1cc(C(F)(F)F)n(-c2ccc(N)cc2)n1)[C@@H]1C[C@@H]2O[C@]2(C)CCC[C@H](C)[C@H](O)[C@@H](C)C(=O)C(C)(C)[C@@H](O)CC(=O)O1 [Compound 9] | passed the initial one dose test
6 | C/C(=C\c1ccn(-c2ccc(N)c(F)c2)n1)[C@@H]1C[C@@H]2O[C@]2(C)CCC[C@H](C)[C@H](O)[C@@H](C)C(=O)C(C)(C)[C@@H](O)CC(=O)O1 [Compound 12] | passed the initial one dose test
7 | C/C(=C\c1ccn(-c2ccc(N)cc2C(F)(F)F)n1)[C@@H]1C[C@@H]2O[C@]2(C)CCC[C@H](C)[C@H](O)[C@@H](C)C(=O)C(C)(C)[C@@H](O)CC(=O)O1 [Compound 13] | passed the initial one dose test

Reference: US10874646B2, “Epothilone analogs, methods of synthesis, methods of treatment, and drug conjugates thereof” (WILLIAM MARSH RICE UNIVERSITY, priority 2015, dated 2020)
